From PMC5439121 come the findings set out here.

In experiment [1] the target is epidermal growth factor receptor (human (endogenous in SGC-7901 and BGC-823)) (UniProt P00533). The experiment in a line: co-IP; data not shown; SGC-7901 and BGC-823 cells treated with the Src inhibitor PP2, association of CD24 with EGFR examined; the method is not given.
The target is the same in experiment [2]. Put plainly: co-IP; proteins of SGC-7901 or BGC-823 cells precipitated with anti-EGFR antibody at 4 °C for 4 h, protein A+G agarose beads 1 h, six washes; Western blot for CD24.

Results are given in words; binding and its absence hold for the method and conditions named. In cells and extracts the contact can be indirect. Some results given as binding are weak or reduced against the parent protein; the word gives no strength.

SETTTGTSSNSSQSTSNSGLAPNPTNATTKAAG (peptide, UniProt P25063 27-59) [CD24]: the binding result in experiment [1] and in experiment [2] was “binds” in each case.
